Experimental data reported in patent publication US20120094958A1, “QUINOLINES AS INHIBITORS OF FARNESYL PYROPHOSPHATE SYNTHASE” (NOVARTIS AG, priority 2008, published 2012).
The match of structure and compound is tentative.

By UniProt entry, the sequences of proteins in these tests, tags left out. Residues count along the entry.
UniProt P14324, 67-419: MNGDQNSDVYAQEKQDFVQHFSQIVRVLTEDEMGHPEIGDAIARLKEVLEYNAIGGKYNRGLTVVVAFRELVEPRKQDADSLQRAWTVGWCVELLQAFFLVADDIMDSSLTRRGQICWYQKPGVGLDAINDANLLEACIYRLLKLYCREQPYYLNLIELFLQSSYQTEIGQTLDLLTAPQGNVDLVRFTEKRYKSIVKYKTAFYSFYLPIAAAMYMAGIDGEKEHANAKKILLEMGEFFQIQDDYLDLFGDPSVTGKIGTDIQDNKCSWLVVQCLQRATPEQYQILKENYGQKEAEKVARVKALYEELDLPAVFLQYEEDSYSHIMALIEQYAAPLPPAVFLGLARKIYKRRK

Biological target: FPPS (Farnesyl pyrophosphate synthase) (Homo sapiens, UniProt P14324)
Test: FPPS Assay: LC-MS Method
Type: biochemical
Conditions: read-out: FPPS IC50, GPP/IPP 5 μM each, reaction stopped after 10 minutes, tested form: TFA

- IC50: 570 nM
SMILES: CC(C)(C)OC(=O)NC(C(=O)Nc1cc(-c2cccc3ccccc23)c2nc(/C=C/P(=O)(O)O)ccc2c1)C(C)(C)C (stereo not shown)
